These are yes or no findings as the source states them, for the method shown. Binding seen in cells or lysates may run through a third protein. These calls come from enrichment with a bait or labelling near it, and not all partners need be listed. For some of these results: No binding means not detected with the bait. For some of these results: Sequences can lack the tags named with a protein.
T1: NtMatK-HA (Nicotiana tabacum) (UniProt P12176)
T1 sequence: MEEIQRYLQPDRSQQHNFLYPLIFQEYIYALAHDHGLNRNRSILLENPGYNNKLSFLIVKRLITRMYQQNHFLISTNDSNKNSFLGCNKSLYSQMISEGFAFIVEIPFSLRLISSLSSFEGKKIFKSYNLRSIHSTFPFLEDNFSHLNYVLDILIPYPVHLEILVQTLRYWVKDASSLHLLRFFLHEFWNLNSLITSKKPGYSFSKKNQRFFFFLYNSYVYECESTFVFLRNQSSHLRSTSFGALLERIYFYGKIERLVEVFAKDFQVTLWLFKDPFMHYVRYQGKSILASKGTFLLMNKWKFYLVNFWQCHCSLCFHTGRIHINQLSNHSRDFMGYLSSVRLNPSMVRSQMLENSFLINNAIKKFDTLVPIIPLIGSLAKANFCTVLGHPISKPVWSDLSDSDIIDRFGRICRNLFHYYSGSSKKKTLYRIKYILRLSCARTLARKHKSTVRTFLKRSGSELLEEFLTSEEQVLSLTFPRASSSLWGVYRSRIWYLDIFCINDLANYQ


Tests used:
[1] = target: T1, NtMatK-HA (Nicotiana tabacum); test: affinity purification with mass spectrometry; anti-HA IP from 10-day-old NtMatK C+ tobacco seedlings, NtMatK C- as control, without RNase treatment; on-bead digest
[2] = target: AtMKIP1-YFP (Arabidopsis thaliana); test: affinity purification with mass spectrometry; anti-YFP IP (µMACS magnetic beads) from soluble proteins of mature rosettes of P35S:AtMKIP1-YFP Arabidopsis, Col-0 as control; three independent experiments

binding [1] | binding [2] | Molecule
binds |  | NtEMB3120
binds |  | NtMKIP1
binds weakly |  | NtRNC1
binds |  | NtValRS2

Second part, the molecule before the results:

Molecule | binding [1] | binding [2]
chaperonin-60 α (tobacco, plastidial) | binds weakly | 
chaperonin-60 β (tobacco, plastidial) | binds weakly | 
RNC1 (Arabidopsis) (protein, UniProt Q9SZV0 52-537) ASVTAETQGLPRDSPQRLLKELAQRKTATGPKKKVPPKRFILRPPLDDKKLAERFLNSPQLSLKSFPLLSSCLPSSKLNNADKTWIDEYLLEVKQALGYSLEPSESLGDDNPAKHFDTLLYLAFQHPSCDRARARHVKNGHSRLWFLGQYVLELALTEFFLQRYPRESPGPMRERVFALIGKRYLPKWIKAASLQNLIFPYDDMDKLIRKEREPPVKSVFWALFGAIYLCFGMPEVYRVLFEVFGMDPDADECQPRSRRQLEDVDYVSVEFEGKKLGWQDIATYKPPEDALFAHPRLFRACVPPGMHRFRGNIWDFDSKPKVMQTLGYPLTMNDRIKEITEARNIELGLGLQLCFLHPSKHKFEHPRFCFERLEYVGQKIQDIAMAERLLMKHLDAPGKWLQEKHRRLLMNKFCGRYLREKRLHNFIIYSEEVHDRYEHNRRLRNPATTAVQQAIHGLAYTIYGKPDVRRLMFEVFDFEQIQPKAV |  | no binding

Source: article PMC13172542
